We go through two molecules from PMC3893498.

Assay [1] concerns the target recombinant wt-TaqII protein (TaqII REase-MTase expressed from the wt-taqIIRM gene) (Thermus aquaticus) (UniProt Q8GJ86). The experiment in a line: SEC; analytical molecular sieving in a buffer close to physiological conditions containing 3 mM MgCl2, in the absence of DNA; both purified.
Assay [2] has as its target recombinant syn-TaqII protein (TaqII REase-MTase expressed from the synthetic codon-optimized syn-taqIIRM gene) (Thermus aquaticus) (UniProt Q8GJ86). The assay is described as above.

No constants are given. Whether binding was seen depends on the method and setting.

B1: recombinant wt-TaqII protein (TaqII REase-MTase expressed from the wt-taqIIRM gene) (enzyme, UniProt Q8GJ86 1-1105)
chain: MTGDTWVLSIRKYLSELRRVQALAQGEAEPEAQLIPLVKGLLEETLGVRVVIEARPKGDTKVGKPDLGVKHQGLLVGFVELKAPGKGADPERYRGHDREQWERFRQLPNLVYTDGRDFALFREGQKVREVRLASEGDAEALRELFLDFLNWRPLVPRNPQELARFLAPLARFLREAVLEEVRENPNGELARLREEWRKNLLPEGDERVFADAYAQLITYGFLLAAALDSGEEPLYLERALELLEGRYGLLMEALFVANHPRLLAEIRPAYDLLRRALRAVDPSVFRVQGVDPWLYFYEDFLQAYDPDLRKDMGVYYTPVPVVRAMVRLVDEALKEGFGLAEGLAHEKVTVLDPAMGTGTFLLATLERALANMASLYGRGYRGQYAKEVASRLHGIELMVGPYAVAQLRLSQAIQGEGGSLPEEGLNLYLADTLEAPEAPPLEQVFFYERLAEERKRAAELKRDKPILVVLGNPPYDRVEGESQEERERKGGWVLRGPREPYPLMEDFLRPAREADLGIHLKNLYNLYVYFWRFALWKVFEQDPERGGVLCFITPSSYLQGPAFAGMREHVRRVADRVYILDLGGEGRGAVREENVFNIQTPVAIALVVRRGPQDSQTPARVFYHRLAPTTREEKLKELEELPPLKDIPFREAPRDWQAPFVPEVGGEWTRWPKLTDLFPWQHSGVEFKRTWPIGPTEEVLKKRWEILLKAPPGERRALFRETGDRLLVKSHRAIFSSKPLPPIATLGPGNPPEAIVRYGYRSFDRAWAIADGRVCSRPRPSLWQTWSERQVYLTSLLTTPLGRGPALVATAYLPDLHHFSSRGGKDIIPLFRDREGREPNLTRGLLKLLEEAYGFPVSPEDFAAYVYALLAHPAYTERFAEELRVPGPRVPLTKDPSLFREGAELGAYLLWLHTYGERYAEGRSWPPKGRARWAKPPSAYPEGHSYDPETRILHVGDGEVEDVAPEVYGFEVSGFLPVESWLGFRQRNRRGRRSSPLDDVVPSEWPADLGRELLELLWVLEKTLEIYPEQKELLQKVLEGPLFTVDELPTPTPEQREPPGGEEEKPQEAEAVGEEEGENGAEHVVQPRLLSLREASRDGVYGNQP
In the case of B1, in assay [1], the binding result is reported as “no binding”.

B2: recombinant syn-TaqII protein (TaqII REase-MTase expressed from the synthetic codon-optimized syn-taqIIRM gene) (enzyme, UniProt Q8GJ86 1-1105)
chain: MTGDTWVLSIRKYLSELRRVQALAQGEAEPEAQLIPLVKGLLEETLGVRVVIEARPKGDTKVGKPDLGVKHQGLLVGFVELKAPGKGADPERYRGHDREQWERFRQLPNLVYTDGRDFALFREGQKVREVRLASEGDAEALRELFLDFLNWRPLVPRNPQELARFLAPLARFLREAVLEEVRENPNGELARLREEWRKNLLPEGDERVFADAYAQLITYGFLLAAALDSGEEPLYLERALELLEGRYGLLMEALFVANHPRLLAEIRPAYDLLRRALRAVDPSVFRVQGVDPWLYFYEDFLQAYDPDLRKDMGVYYTPVPVVRAMVRLVDEALKEGFGLAEGLAHEKVTVLDPAMGTGTFLLATLERALANMASLYGRGYRGQYAKEVASRLHGIELMVGPYAVAQLRLSQAIQGEGGSLPEEGLNLYLADTLEAPEAPPLEQVFFYERLAEERKRAAELKRDKPILVVLGNPPYDRVEGESQEERERKGGWVLRGPREPYPLMEDFLRPAREADLGIHLKNLYNLYVYFWRFALWKVFEQDPERGGVLCFITPSSYLQGPAFAGMREHVRRVADRVYILDLGGEGRGAVREENVFNIQTPVAIALVVRRGPQDSQTPARVFYHRLAPTTREEKLKELEELPPLKDIPFREAPRDWQAPFVPEVGGEWTRWPKLTDLFPWQHSGVEFKRTWPIGPTEEVLKKRWEILLKAPPGERRALFRETGDRLLVKSHRAIFSSKPLPPIATLGPGNPPEAIVRYGYRSFDRAWAIADGRVCSRPRPSLWQTWSERQVYLTSLLTTPLGRGPALVATAYLPDLHHFSSRGGKDIIPLFRDREGREPNLTRGLLKLLEEAYGFPVSPEDFAAYVYALLAHPAYTERFAEELRVPGPRVPLTKDPSLFREGAELGAYLLWLHTYGERYAEGRSWPPKGRARWAKPPSAYPEGHSYDPETRILHVGDGEVEDVAPEVYGFEVSGFLPVESWLGFRQRNRRGRRSSPLDDVVPSEWPADLGRELLELLWVLEKTLEIYPEQKELLQKVLEGPLFTVDELPTPTPEQREPPGGEEEKPQEAEAVGEEEGENGAEHVVQPRLLSLREASRDGVYGNQP
On to B2, for which the binding result in assay [2] is “no binding”.
